Results published in the supplement of paper PMC8866396.
Several values for one entry are separate records, joined by “and”; a condition that tells them apart may be missing. Identical values can stand only once. ± gives the standard deviation of the averaged measurements. This is one part of the list. This data set is noisy: repeats of one test often differ as much as different tests do.

The compounds below were run on IL-6-GFP PC-9GR (assay: IL-6-GFP fluorescence relative to DMSO control (fraction of control); higher = more IL-6-GFP expression). Conditions: compound concentration: 10 uM; treatment time: 48 h.
Experimental: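 IL-6-GFP-overexpressing PC-9 and PC-9GR EGFR-mutant lung cancer cells (3000 cells/well, 96-well) were treated for 48 h with each compound of the Selleck L2000 library at 10 uM. IL-6-GFP fluorescence was read on a high-content screening system, and viability by CCK-8 absorbance on a parallel plate set. Each value was normalised as compound well / DMSO control well; two independent replicates.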

SMILES	IL-6-GFP fluorescence
CNC(=O)c1ccc(N2C(=S)N(c3ccc(C#N)c(C(F)(F)F)c3)C(=O)C2(C)C)cc1F [Enzalutamide (MDV3100)]	1.02 ± 0.04
O=C(OCC1OC(OC(=O)c2cc(O)c(O)c(OC(=O)c3cc(O)c(O)c(O)c3)c2)C(OC(=O)c2cc(O)c(O)c(OC(=O)c3cc(O)c(O)c(O)c3)c2)C(OC(=O)c2cc(O)c(O)c(OC(=O)c3cc(O)c(O)c(O)c3)c2)C1OC(=O)c1cc(O)c(O)c(OC(=O)c2cc(O)c(O)c(O)c2)c1)c1cc(O)c(O)c(OC(=O)c2cc(O)c(O)c(O)c2)c1 (centres undefined) [Tannic acid]	0.8053 ± 0.008
CC1CC2C3CCC4=CC(=O)C=CC4(C)C3(F)C(O)CC2(C)C1(O)C(=O)CO (centres undefined) [Dexamethasone (DHAP)]	1.08 ± 0.12
Cc1cnc(C(=O)NC2CCCCC/C=C\C3CC3(C(=O)NS(=O)(=O)C3CC3)NC(=O)C3CC(Oc4nc5ccccc5c5ccccc45)CN3C2=O)cn1 (centres undefined) [Paritaprevir (ABT-450)]	0.845 ± 0.092
CC(C)c1nc(CN(C)C(=O)NC(CCN2CCOCC2)C(=O)NC(CCC(Cc2ccccc2)NC(=O)OCc2cncs2)Cc2ccccc2)cs1 (centres undefined) [Cobicistat (GS-9350)]	0.917 ± 0.11
Clc1ccc(C(c2ccccc2Cl)C(Cl)Cl)cc1 (centres undefined) [Mitotane]	0.792 ± 0.15
CCOC(=O)c1ccc(OC(=O)CCCCCNC(=N)N)cc1.CS(=O)(=O)O [Gabexate Mesylate]	0.808 ± 0.1
Cc1ccc(Nc2nccc(N(C)c3ccc4c(C)n(C)nc4c3)n2)cc1S(N)(=O)=O [Pazopanib]	0.974 ± 0.033
CC(OC1OCCN(Cc2n[nH]c(=O)[nH]2)C1c1ccc(F)cc1)c1cc(C(F)(F)F)cc(C(F)(F)F)c1 (centres undefined) [Aprepitant]	1.03 ± 0.028
CS(=O)(=O)n1cc2c(n1)CN(C1COC(c3cc(F)ccc3F)C(N)C1)C2 (centres undefined) [Omarigliptin (MK-3102)]	0.933 ± 0.1
CC1CC2C3CCC4=CC(=O)C=CC4(C)C3C(=O)CC2(C)C1(O)C(=O)CO (centres undefined) [Meprednisone]	0.72 ± 0.098
CC(C)Cn1cnc2c(N)nc3ccccc3c21 [Imiquimod]	1.07 ± 0.16
C[Se]CC[C@H](N)C(=O)O [L-SelenoMethionine]	1.62 ± 1.1
CC[N+](CC)(CC)CCOc1cccc(OCC[N+](CC)(CC)CC)c1OCC[N+](CC)(CC)CC.[I-].[I-].[I-] [Gallamine Triethiodide]	1.07 ± 0.023
CC(=O)[N-]S(=O)(=O)c1ccc(N)cc1.[Na+] [Sulfacetamide Sodium]	0.626 ± 0.25
CNCC(O)c1ccc(O)c(O)c1.O=C(O)C(O)C(O)C(=O)O (centres undefined) [Epinephrine bitartrate]	1.78 ± 0.32
CCS(=O)(=O)O.COC(=O)c1ccc2c(c1)NC(=O)/C2=C(\Nc1ccc(N(C)C(=O)CN2CCN(C)CC2)cc1)c1ccccc1 [Nintedanib Ethanesulfonate Salt]	1.28 ± 0.29
FC(F)(F)c1ccc(CNc2ccc(Cc3c[nH]c4ncc(Cl)cc34)cn2)cn1 [Pexidartinib (PLX3397)]	1.04 ± 0.37
CCN1CCN(Cc2ccc(Nc3ncc(F)c(-c4cc(F)c5nc(C)n(C(C)C)c5c4)n3)nc2)CC1 [Abemaciclib]	1.01 ± 0.18
N#CCC(C1CCCC1)n1cc(-c2ncnc3[nH]ccc23)cn1 (centres undefined)	0.831 and 0.868

SMILES	IL-6-GFP fluorescence
CC(=O)OCC1OC(n2ccc(=O)[nH]c2=O)C(OC(C)=O)C1OC(C)=O (centres undefined) [uridine triacetate]	0.808 ± 0.031
CC1=C(/C=C/C(C)=C/C=C/C(C)=C/C(=O)O)C(C)(C)CCC1 [Tretinoin]	0.811 ± 0.24
COC(=O)C(Cc1ccccc1)NC(=O)C(N)CC(=O)O (centres undefined) [Aspartame]	0.586 ± 0.28
COc1ccc(-c2cc(=S)ss2)cc1 [Anethole trithione]	0.385 ± 0.32
COc1cc(C2Oc3cc(C4Oc5cc(O)cc(O)c5C(=O)C4O)ccc3OC2CO)ccc1O (centres undefined) [Silibinin]	0.719 ± 0.34
CC(=O)OC1C(=O)C2(C)C(O)CC3OCC3(OC(C)=O)C2C(OC(=O)c2ccccc2)C2(O)CC(OC(=O)C(O)C(NC(=O)c3ccccc3)c3ccccc3)C(C)=C1C2(C)C (centres undefined) [Paclitaxel]	1.14 ± 0.042
COC(=O)CC(O)(CCCC(C)(C)O)C(=O)OC1C(OC)=CC23CCCN2CCc2cc4c(cc2C13)OCO4 (centres undefined) [Homoharringtonine]	1.1 ± 0.23
COc1cc2ncnc(Nc3ccc(F)c(Cl)c3)c2cc1NC(=O)/C=C/CN1CCCCC1	0.965 ± 0.092
COc1ccc2cc1Oc1ccc(cc1)CC1c3cc(c(OC)cc3CCN1C)Oc1c(O)c(OC)cc3c1C(C2)N(C)CC3 (single isomer, unassigned; (+)) [(+)-Fangchinoline]	0.89819 ± 4.1e-05
S=P(N1CC1)(N1CC1)N1CC1 [Thiotepa]	0.715 ± 0.21
CC1(C)CCC(CN2CCN(c3ccc(C(=O)NS(=O)(=O)c4ccc(NCC5CCOCC5)c([N+](=O)[O-])c4)c(Oc4cnc5[nH]ccc5c4)c3)CC2)=C(c2ccc(Cl)cc2)C1 [Venetoclax (ABT-199, GDC-0199)]	0.804 ± 0.087
Cl.Cl.O=C(O)COCCN1CCN(C(c2ccccc2)c2ccc(Cl)cc2)CC1 (centres undefined) [Cetirizine DiHCl]	1.02 ± 0.023
COc1cc(Nc2c(C#N)cnc3cc(OCCCN4CCN(C)CC4)c(OC)cc23)c(Cl)cc1Cl [Bosutinib (SKI-606)]	1.23 ± 0.11
CCCCCCCCCCCC1=C(O)C(=O)C=C(O)C1=O [Embelin]	0.677 ± 0.045
Cc1cn(-c2cc(NC(=O)c3ccc(C)c(Nc4nccc(-c5cccnc5)n4)c3)cc(C(F)(F)F)c2)cn1 [Nilotinib (AMN-107)]	0.95 ± 0.12
CC(C)C(=O)OCC(=O)C12OC(C3CCCCC3)OC1CC1C3CCC4=CC(=O)C=CC4(C)C3C(O)CC12C (centres undefined) [Ciclesonide]	0.497 ± 0.31
Cn1nnc2c(C(N)=O)ncn2c1=O [Temozolomide]	0.951 ± 0.073
CN(C)C(=O)c1cc2cnc(Nc3ccc(N4CCNCC4)cn3)nc2n1C1CCCC1 [Ribociclib (LEE011)]	1.02 ± 0.057
Nc1ccn(C2OC(CO)C(O)C2(F)F)c(=O)n1 (centres undefined) [Gemcitabine]	0.775 ± 0.25
